We go through 1 substance from article PMC3655167.

By UniProt entry, the sequences of proteins in these tests, tags left out.
UniProt O95563: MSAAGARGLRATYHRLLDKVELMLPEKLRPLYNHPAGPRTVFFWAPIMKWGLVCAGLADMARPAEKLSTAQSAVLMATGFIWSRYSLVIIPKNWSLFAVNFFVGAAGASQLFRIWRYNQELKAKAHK

The target of the test is T1, BRP44 with a C-terminal 6×His-tag (UniProt Q9D023).
T1 sequence (chain, crosslinked with the 125I-labelled photoprobe MSDC-1101 (residue not stated)): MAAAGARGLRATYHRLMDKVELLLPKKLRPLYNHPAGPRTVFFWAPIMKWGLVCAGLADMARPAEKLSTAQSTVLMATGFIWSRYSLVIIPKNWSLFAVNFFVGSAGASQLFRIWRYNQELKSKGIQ
Nature of the test: co-IP; solubilized, MSDC-1101-crosslinked mitochondria from HEK293 cells stably expressing BRP44-6×His; immunoprecipitated with anti-His agarose beads; partners shown by Western blots and mass spectrometry (not shown). In general terms: A western blot detects proteins with antibodies after separation by electrophoresis.

These are yes or no findings as the source states them, for the method shown. In cells and extracts the contact can be indirect. Some binding calls cover weakened binding; strength is not graded here. Sequences can lack the tags named with a protein.

With “native BRP44 (from UniProt O95563 1-127)”, the binding entry is “binds”.
